Cell number change and AC50 data for 40 compounds are collected here from PubChem BioAssay AID2685 (National Center for Advancing Translational Sciences (NCATS), 2010).

This assay can be described thus: qHTS Assay for Lipid Storage Modulators in Drosophila S3 Cells.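 For Cell number change: cells counted by Cell Tracker Red CMTPX staining in the red channel.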 The settings on record: BODIPY lipid droplet fluorescence, 18-24 h; for cell number change: measured here: cell count max response, cells fed with added oleic acid. The essentials: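 Drosophila S3 cells got compounds at several concentrations plus oleic acid (400 uM solution). Laser-scanning cytometry with 488 nm excitation read lipid droplets at 500-530 nm and cells at 575-640 nm. Percent activity was relative to 20 uM Triacsin C.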

Setting [1] is: measured here: lipid fluorescence (Fed channel) AC50, cells fed with added oleic acid.
Where [2] appears, read: measured here: cell number channel AC50, cells fed with added oleic acid.

The other results are listed elsewhere or left out. The main result of the screen is listed elsewhere. These columns were measured beside it and carry no call. Compounds called inactive in the main read-out are mostly missing here. Potencies come from curve fits of mixed quality, noted in brackets.

One may read the AC50 as the midpoint of the concentration-response curve, whichever way the signal moves. A higher AC50 goes with weaker potency.

For `CC1CCCN(C(=O)COC(=O)CNC(=O)c2sc3ccccc3c2Cl)C1` (centres undefined), the cell number change is 6.85%. Moreover, the half-maximal activity concentration (AC50) under setting [1] is 0.13 µM [falling, full curve, poor fit].

Consider `O=S(=O)(c1ccc(Cl)cc1)N1CCN(C(=S)Nc2ccc(F)c(Cl)c2)CC1`, for which the cell number change was 16.4%. For the same compound, the AC50 under setting [1] is 14.6 µM [rising, partial curve].

Take `O=C(CSc1ccccc1)Nc1ccc(S(=O)(=O)Nc2ncccn2)cc1`: the cell number change worked out at 16.3%.

Consider `O=C(CC1SC(N2CCCCC2)=NC1=O)Nc1cccc(C(=O)Nc2ncccc2O)c1` (centres undefined), for which the AC50 under setting [1] was 0.103 µM [falling, full curve, poor fit].

`O=C(Nc1cccc(C(F)(F)F)c1)c1ccc(Cn2cc(Br)cn2)o1`: the cell number change amounted to 9.12%.

As to `CCc1nnc(SCC(=O)Nc2ccc3c(c2)OCO3)n1CC`, the cell number change stood at 13%.

As for `COc1ccc(SCCN2CC[C@@H](C(C)(C)C)CCC2=O)cc1`, the cell number change is -38.9%. The concentration at half-maximal activity (AC50) under setting [2] was 4.11 µM [falling, single point]. Besides, the AC50 under setting [1] is 0.116 µM [rising, single point].

`Cc1ccc(C)c(C(=O)COC(=O)c2ccc(Br)o2)c1`: the cell number change stood at 62.2%. Also, the concentration at half-maximal activity (AC50) under setting [2] was 1.84 µM [rising, partial curve]. Under setting [1], the AC50 is 1.84 µM [rising, partial curve].

For `CC(OC(=O)C1CC1C)C(=O)Nc1ccc(Cl)cn1` (centres undefined), the cell number change was found to be 22.5%.

Regarding `COc1ccnc(-n2cccc2C=O)c1C#N`, the cell number change was -5.87%. Besides, under setting [1], the AC50 was 14.6 µM [falling, single point].

Consider `CC1=C(C(=O)OC(C)C)C(c2ccc(O)cc2)NC(=O)N1` (centres undefined), for which the cell number change was -5.84%.

As for `COCCn1c(C)cc(C(=O)COC(=O)CCN2C(=O)c3ccccc3C2=O)c1C`, the cell number change was -84.6%. Further, under setting [2], the AC50 is 32.6 µM [falling, partial curve, poor fit]. Moreover, the AC50 under setting [1] was 25.9 µM [falling, partial curve].

With `Cc1cc2[nH]ncc2cc1NC(N)=S`, the cell number change amounted to 57.2%. For the same compound, the AC50 under setting [2] is 6.51 µM [rising, partial curve, poor fit].

Consider `CCN1CCN(C(=S)Nc2cc(S(=O)(=O)N(CC)CC)ccc2C)CC1`, for which the cell number change was determined as 179%. The concentration at half-maximal activity (AC50) under setting [2] was 18.4 µM [rising, partial curve]. Further, the concentration at half-maximal activity (AC50) under setting [1] is 14.6 µM [rising, partial curve].

For the compound `CCOc1ccccc1NCc1cc(=O)oc2cc(C)c(O)cc12`, the AC50 under setting [1] was 29.1 µM [falling, single point].

Consider `CC(=O)Nc1ccc(S(=O)(=O)N2CCN(S(=O)(=O)c3ccccc3)CC2)cc1`, for which the cell number change is 5.18%. Besides, the AC50 under setting [1] is 0.164 µM [falling, full curve, poor fit].

On to `O=S(=O)(NC1C2CC3CC(C2)CC1C3)c1ccc(F)cc1` (centres undefined), for which the cell number change is -43.8%. Also, the concentration at half-maximal activity (AC50) under setting [2] is 23.1 µM [falling, partial curve].

With `Cc1ccc(NC(=O)C2C3C=CC4(O3)C2C(=O)N(CCCN2CCCCC2)C4C(=O)NC2CCCCC2)cc1C` (centres undefined), the cell number change turned out to be 9.01%. Also, the AC50 under setting [1] was 11.6 µM [falling, single point].

In the case of `COC(=O)c1ccccc1NC(=O)CCn1c(=O)oc2ccccc21`, the cell number change was found to be 10.7%. Moreover, under setting [1], the half-maximal activity concentration (AC50) was 7.31 µM [rising, partial curve].

Take `CN(C)CCNC(=O)C(c1ccccc1)c1ccccc1`: the cell number change came out at 17.2%. Besides, the half-maximal activity concentration (AC50) under setting [2] was 7.31 µM [rising, single point]. Moreover, the AC50 under setting [1] was 6.51 µM [rising, partial curve, poor fit].

In the case of `CCn1c(SCC(=O)N/N=C/C(C)=C\c2ccco2)nnc1-c1ccccc1`, the cell number change came out at 1.2%. Besides, under setting [1], the AC50 was 6.51 µM [rising, partial curve, poor fit].

`Cc1ccccc1NC(=O)CC(C)S(=O)(=O)c1ccc2c(c1)NC(=O)CO2` (centres undefined): the cell number change was -11%. Also, the AC50 under setting [1] was 2.59 µM [rising, partial curve].

As for `COc1cccc(NC(=O)CN(C)C(=O)c2c(-c3c(F)cccc3Cl)noc2C)c1`, the cell number change was -2.28%. Besides, the AC50 under setting [1] was 10.3 µM [falling, partial curve, poor fit].

For `O=c1c2ccccc2c(-c2ccccc2)nn1Cc1ccc(Cl)cc1`, under setting [1], the AC50 is 0.517 µM [falling, full curve, poor fit].

`COc1ccc(Cc2nnc(N/N=C/c3ccc(O)cc3O)[nH]c2=O)cc1OC`: the cell number change worked out at 14.8%. The AC50 under setting [2] was 5.8 µM [rising, partial curve]. Further, the AC50 under setting [1] was 29.1 µM [rising, single point].

For `COc1ccc(NC(=O)CN(C)C(=O)Cc2ccc3c(c2)OCCO3)cc1`, the cell number change is 3.5%.

On to `O=C(/C=C/c1ccc(OC(F)F)cc1)Nc1cccc(S(=O)(=O)NC2=NCCCCC2)c1`, for which the cell number change came out at 45.4%. Also, the AC50 under setting [2] is 18.4 µM [rising, partial curve].

On to `Cc1ccccc1-c1nnn(CC(=O)N(C)CC(=O)Nc2ccccc2C(F)(F)F)n1`, for which the cell number change was -15%.

Turning to `CN(CC(=O)Nc1c(Cl)cccc1Cl)C(=O)c1ccc2ccccc2n1`, the cell number change turned out to be 11.7%. For the same compound, under setting [1], the AC50 was 29.1 µM [rising, single point].

For the compound `O=C(Nc1nc2ccccc2[nH]1)c1cc2ccccc2o1`, the cell number change is -34.1%. Further, under setting [2], the AC50 was 1.84 µM [falling, full curve, poor fit].

Take `CCN1C(=O)/C(=C\N(C)C)NC1=S`: the cell number change was -6.91%.

For `CCN1CCN(C(CNS(=O)(=O)c2ccc(C)cc2)c2ccccc2)CC1` (centres undefined), the cell number change came to 12.4%.

Regarding `COC(=O)c1ccc(N=Cc2c(-c3ccccc3)[nH][nH]c2=O)cc1`, the cell number change was -18.5%.

In the case of `COc1ccc(-c2nc(-c3ccccn3)nc(N3CCN(C)CC3)c2C#N)cc1`, the cell number change turned out to be 9.62%. For the same compound, under setting [1], the AC50 was 2.31 µM [rising, full curve, poor fit].

With `COc1ccc(-c2nc(CS(=O)CC(=O)NCc3ccc(Cl)cc3)c(C)o2)cc1OC` (centres undefined), the cell number change amounted to 16.1%. Also, under setting [1], the AC50 was 5.8 µM [rising, single point].

As to `Cc1ccc(S(=O)(=O)NCCc2c[nH]c3ccccc23)cc1`, the cell number change worked out at 12.7%. Further, under setting [2], the AC50 was 0.651 µM [rising, full curve, poor fit].

As for `CCCN(CC(=O)Nc1ccccc1OC)C(=O)Cn1[nH]c(=O)c2ccccc2c1=O`, the cell number change was determined as 7.09%. Further, the AC50 under setting [1] was 0.13 µM [falling, full curve, poor fit].

For the compound `CC(=O)Nc1ccc(NCc2ccc(C)s2)cc1`, the cell number change came out at 15.4%. Besides, under setting [1], the AC50 was 6.51 µM [falling, partial curve, poor fit].

For `Cc1ccc2nc(SCC(=O)NC3CCCCC3)nc(=O)n2c1`, the cell number change was found to be 36.2%. For the same compound, the AC50 under setting [2] is 3.66 µM [rising, partial curve]. Further, the concentration at half-maximal activity (AC50) under setting [1] was 1.16 µM [rising, full curve, poor fit].

Consider `O=C(NCCc1ccccc1)C1CCCN(c2nc3ccccc3s2)C1` (centres undefined), for which the cell number change was 32.1%. The AC50 under setting [2] was 0.103 µM [rising, full curve, poor fit].
